Reference: PubChem BioAssay AID248 (DTP/NCI, 2004)
The list is a part of this screen's results and no random one: it gathers tests that were run many times, whatever their T/C, doses with no T/C, and many T/C values between a quarter and a half above the control. Further doses and runs are listed elsewhere. T/C: endpoint of the treated group in % of that of the vehicle group. Some doses have a count of surviving animals in place of a T/C: the source files T/C as zero there, which appears to mark a toxic dose or a test without result, not a measured value. Some survivor counts are full or nearly so, which does not show that the dose was tolerated: the source hardly ever lists a survival T/C far under the control, and the zero likely stands for such cases as well. Counts of survivors are from the toxicity check (mostly the fifth day) where no day follows; animals may have died later. Schedules are NCI's codes, taken here to give the interval after Q, in days (D) or hours (H), and the number of doses after X. For survival time, this PubChem deposit counts one and a half times the control or more as active, and values a quarter to a half above the control carry no call in these data; other NCI protocols may use other cut-offs. Some doses were run more than once; the results are listed from low to high. Counts like (3×) count equal records among those shown. Some T/C values carry the count of animals alive at the toxicity check (mostly the fifth day); without a count, all were alive then.

System: L1210 leukemia ip in BDF1 mice, survival T/C
Test: NCI In Vivo Anticancer Drug Screen. Data for tumor model L1210 Leukemia (intraperitoneal) in B6D2F1 (BDF1) mice
Details: T/C endpoint: mean survival time, higher T/C = longer survival
[1] = dose: 200.0 mg/kg/injection, schedule: Q04DX003 (ip), vehicle: saline with Tween-80
[2] = dose: 400.0 mg/kg/injection, schedule: Q04DX003 (ip), vehicle: saline with Tween-80
[3] = dose: 400.0 mg/kg/injection, schedule: Q01DX009 (ip), vehicle: saline with Tween-80
[4] = dose: 400.0 mg/kg/injection, schedule: Q01DX001 (ip), vehicle: saline
[5] = dose: 300.0 mg/kg/injection, schedule: Q01DX001 (ip), vehicle: other
[6] = dose: 400.0 mg/kg/injection, schedule: Q04DX003 (ip), vehicle: Klucel (hydroxypropylcellulose) (HPC)
[7] = dose: 100.0 mg/kg/injection, schedule: Q01DX001 (ip), vehicle: saline
[8] = dose: 200.0 mg/kg/injection, schedule: Q01DX001 (ip), vehicle: saline
[9] = dose: 100.0 mg/kg/injection, schedule: Q04DX002 (ip), vehicle: Klucel (hydroxypropylcellulose) (HPC)
[10] = dose: 400.0 mg/kg/injection, schedule: Q04DX002 (ip), vehicle: Klucel (hydroxypropylcellulose) (HPC)
[11] = dose: 200.0 mg/kg/injection, schedule: Q01DX001 (ip), vehicle: carboxymethylcellulose (CMC)
[12] = dose: 400.0 mg/kg/injection, schedule: Q01DX001 (ip), vehicle: carboxymethylcellulose (CMC)
[13] = dose: 200.0 mg/kg/injection, schedule: Q04DX002 (ip), vehicle: Klucel (hydroxypropylcellulose) (HPC)
[14] = dose: 100.0 mg/kg/injection, schedule: Q01DX009 (ip), vehicle: Klucel (hydroxypropylcellulose) (HPC)

In the case of `Cc1noc(NC(=O)Nc2ccc(Cl)cc2Cl)c1C`, the survivor count (dose: 50.0 mg/kg/injection, schedule: Q01DX009 (ip), vehicle: saline with Tween-80) is reported as 3 of 3.
`CC(C)C(CN)(CCCN1CCCCC1)c1cccc2ccccc12` (stereo not given) was tested, and the survivor count [1] was 2 of 6 and the survivor count [2] was 0 of 6.
`c1ccc(-c2csc3cccc[n+]23)cc1` was tested, and the survivor count [1] was 0 of 6 and the survivor count [2] was 0 of 6.
For `CC(=O)Oc1cccc(OC(=O)Nc2ccccc2F)c1`, the survivor count [3] was 0 of 6.
For `Nc1nc2c(=O)[nH]c(=O)[nH]c2n1C1OC(CO)C(O)C1O` (stereo not given), the survivor count [4] was 0 of 6.
`CC1CCC(C(O)(C(=O)O)C2CCCCC2)CC1` (stereo not given) was tested, and the survivor count [5] was 2 of 6.
With `Nc1nc(=O)n(C2OC(CO)C(O)C2O)c2scnc12` (stereo not given) the survivor count (dose: 200.0 mg/kg/injection, schedule: Q01DX005 (ip), vehicle: saline) was 2 of 4.
For `CCOC(=O)C(NC(=O)CCl)C(=O)OCC`, the survivor count [6] was 4 of 6.
With `CC(NC(=S)SCc1ccccc1)C(=O)O` (stereo not given) the survivor count [7] was 2 of 4, the survivor count [8] was 0 of 4 and the survivor count [4] was 0 of 4.
With `CCC[CH2][Sn]([CH2]CCC)([CH2]CCC)[CH2]C(C)(C)c1ccccc1` the survivor count (dose: 150.0 mg/kg/injection, schedule: Q01DX001 (ip), vehicle: other) was 2 of 6 and the survivor count [5] was 0 of 6.
In the case of `Cc1cccnc1C(=O)O.[Cu+2]`, the survivor count [7] is reported as 0 of 4, the survivor count [8] is reported as 0 of 4 and the survivor count [4] is reported as 0 of 4.
With `Nc1ccn(CC(=O)c2ccc(Cl)s2)c(=O)n1` the survivor count (dose: 400.0 mg/kg/injection, schedule: Q01DX009 (ip), vehicle: water) was 6 of 6.
With `OCCN1CCN(CCCN2c3ccccc3Sc3ccc(Cl)cc32)CC1` the T/C [9] was 125 % of control and the survivor count [10] was 0 of 3.
In the case of `Nc1ncnc2cc(O)[nH]c12`, the survivor count [11] is reported as 1 of 4 and the survivor count [12] is reported as 0 of 4.
`O=NN(CCCl)C(=O)Nc1cccc(C(=O)O)c1` was tested, and the T/C (dose: 1.25 mg/kg/injection, schedule: Q01DX001 (ip), vehicle: carboxymethylcellulose (CMC)) was 126 % of control, the T/C (dose: 2.5 mg/kg/injection, schedule: Q01DX001 (ip), vehicle: carboxymethylcellulose (CMC)) was 126 % of control and the T/C (dose: 18.0 mg/kg/injection, schedule: Q01DX001 (ip), vehicle: saline) was 127 % of control. For the same molecule, the T/C (dose: 26.0 mg/kg/injection, schedule: Q01DX001 (ip), vehicle: saline) was 148 % of control, the survivor count (dose: 40.0 mg/kg/injection, schedule: Q01DX001 (ip), vehicle: saline) was 3 of 6 and the survivor count (dose: 60.0 mg/kg/injection, schedule: Q01DX001 (ip), vehicle: saline) was 0 of 6. For the same molecule, the survivor count (dose: 90.0 mg/kg/injection, schedule: Q01DX001 (ip), vehicle: saline) was 0 of 6 and the survivor count (dose: 120.0 mg/kg/injection, schedule: Q01DX001 (ip), vehicle: saline) was 0 of 6.
For `CP1CCC(O)(C(C)(C)C)CC1` (stereo not given), the survivor count [5] was 3 of 6.
With `c1ccc(-n2nc3c(c2-c2ccc(OCCN4CCCC4)cc2)CCCc2ccccc2-3)cc1` the survivor count [1] was 4 of 6 and the survivor count [2] was 0 of 6.
With `OC(COc1ccccc1)CN1CCN(c2ccccc2)CC1` (stereo not given) the survivor count [13] was 3 of 3.
`Cc1ncc(C(O)c2ccccc2)n1Cc1ccccc1` (stereo not given) was tested, and the T/C [9] was 91, 96, 105, 128 % of control, the T/C [13] was 96 (2×), 99, 100 % of control and the T/C [10] was 91, 92, 96, 100 % of control.
`O=C(NCc1ccco1)NCc1ccco1` was tested, and the survivor count [14] was 5 of 6, the survivor count (dose: 200.0 mg/kg/injection, schedule: Q04DX003 (ip), vehicle: Klucel (hydroxypropylcellulose) (HPC)) was 3 of 6 and the survivor count [6] was 0 of 6.
For `Cc1cc(-c2ccc(N3C(=O)C=CC3=O)c(C)c2)ccc1N1C(=O)C=CC1=O`, the survivor count [6] was 0 of 6.
In the case of `O=[N+]([O-])c1cccc(/C=C/c2ccc(S(=O)(=O)F)cc2)c1`, the survivor count [2] is reported as 3 of 6.
`Cc1cc(Cl)ccc1NC(=O)COc1ccc(Cl)cc1Cl` was tested, and the survivor count [2] was 6 of 6.
`CCOC(C(=O)N(C)CCN(C)CCc1ccccc1)(c1ccccc1)c1ccccc1` was tested, and the survivor count [4] was 2 of 4.
With `CCCCCC(CN(C)C)C(O)/C=C/c1ccccc1Cl` (stereo not given) the survivor count (dose: 100.0 mg/kg/injection, schedule: Q01DX009 (ip), vehicle: saline) was 3 of 6, the survivor count (dose: 200.0 mg/kg/injection, schedule: Q04DX003 (ip), vehicle: saline) was 0 of 6 and the survivor count (dose: 400.0 mg/kg/injection, schedule: Q04DX003 (ip), vehicle: saline) was 1 of 6.
For `CCOc1cc(C=Nc2cc(Br)c(OC)c(Br)c2)ccc1N(CCCl)CCCl`, the T/C (dose: 17.0 mg/kg/injection, schedule: Q01DX009 (ip), vehicle: carboxymethylcellulose (CMC)) was 139 % of control, the survivor count (dose: 26.0 mg/kg/injection, schedule: Q01DX009 (ip), vehicle: carboxymethylcellulose (CMC)) was 6 of 6 and the survivor count (dose: 40.0 mg/kg/injection, schedule: Q01DX009 (ip), vehicle: carboxymethylcellulose (CMC)) was 4 of 6. For the same molecule, the survivor count (dose: 60.0 mg/kg/injection, schedule: Q01DX009 (ip), vehicle: carboxymethylcellulose (CMC)) was 5 of 6, the survivor count (dose: 89.0 mg/kg/injection, schedule: Q01DX009 (ip), vehicle: carboxymethylcellulose (CMC)) was 3 of 6 and the T/C (dose: 100.0 mg/kg/injection, schedule: Q01DX001 (ip), vehicle: carboxymethylcellulose (CMC)) was 128 % of control. For the same molecule, the survivor count (dose: 133.0 mg/kg/injection, schedule: Q01DX009 (ip), vehicle: carboxymethylcellulose (CMC)) was 2 of 6, the T/C [11] was 128 and 130 % of control and the survivor count (dose: 200.0 mg/kg/injection, schedule: Q01DX009 (ip), vehicle: carboxymethylcellulose (CMC)) was 0 of 6. For the same molecule, the T/C (dose: 300.0 mg/kg/injection, schedule: Q01DX001 (ip), vehicle: carboxymethylcellulose (CMC)) was 139 % of control, the survivor count (dose: 300.0 mg/kg/injection, schedule: Q01DX009 (ip), vehicle: carboxymethylcellulose (CMC)) was 0 of 6 and the survivor count [12] was 2 of 4.
In the case of `O=C(O)c1c(F)c(F)c(Oc2c(F)c(F)c(F)c(F)c2F)c(F)c1F`, the survivor count [6] is reported as 6 of 6.
For `O=C(CNC(c1ccccc1)(c1ccccc1)c1ccccc1)OC(c1ccccc1)c1ccccc1`, the survivor count [3] was 6 of 6.
For `CCN(CC)C(=O)Nc1cccc(OC(=O)NC)c1`, the survivor count [2] was 6 of 6.
`CCCC(C)Cc1ccc(C(=O)O)cc1` (stereo not given) was tested, and the survivor count (dose: 400.0 mg/kg/injection, schedule: Q01DX009 (ip), vehicle: Klucel (hydroxypropylcellulose) (HPC)) was 1 of 6.
For `CCOP(=S)(OCC)S/C(C(=O)NC)=C(/C)O`, the survivor count (dose: 25.0 mg/kg/injection, schedule: Q01DX009 (ip), vehicle: Klucel (hydroxypropylcellulose) (HPC)) was 0 of 3, the survivor count (dose: 50.0 mg/kg/injection, schedule: Q01DX009 (ip), vehicle: Klucel (hydroxypropylcellulose) (HPC)) was 0 of 3 and the survivor count [14] was 0 of 3. For the same molecule, the survivor count (dose: 200.0 mg/kg/injection, schedule: Q01DX009 (ip), vehicle: Klucel (hydroxypropylcellulose) (HPC)) was 0 of 3 and the T/C (dose: 400.0 mg/kg/injection, schedule: Q04DX003 (sc), vehicle: olive oil, sesame oil, peanut oil) was 126 % of control [5 of 6 alive].
`O=C(O)c1ccc(/C=N/NC(=S)Nc2cccc3cccnc23)cc1` was tested, and the survivor count [7] was 4 of 4.
In the case of `ClCC1=Nc2c(Cl)ncnc2NN1`, the survivor count (dose: 50.0 mg/kg/injection, schedule: Q01DX001 (ip), vehicle: saline with Tween-80) is reported as 2 of 6, the survivor count (dose: 100.0 mg/kg/injection, schedule: Q01DX001 (ip), vehicle: saline with Tween-80) is reported as 0 of 6 and the survivor count (dose: 200.0 mg/kg/injection, schedule: Q01DX001 (ip), vehicle: saline with Tween-80) is reported as 0 of 6. For the same molecule, the survivor count (dose: 400.0 mg/kg/injection, schedule: Q01DX001 (ip), vehicle: saline with Tween-80) was 0 of 6.
`C=C1CC(OC(C)=O)C2C(C)C(=O)OC2C2C1CC1OC12C` (stereo not given) was tested, and the survivor count (dose: 400.0 mg/kg/injection, schedule: Q04DX002 (ip), vehicle: saline) was 2 of 3.
